For some of these results: At least one result comes from cells or an extract, where the contact may be indirect. For some of these results: For at least one entry, the source does not settle the construct or the ends of the probe. For some of these results: A negative result means that nothing was seen under these conditions.
Assays:
[1] = target: KLF3 (Mus musculus) (UniProt Q60980); assay: EMSA; settings: KLF3 not detected in complex by anti-KLF3 antibody; protein in an extract; protein details: native, nuclear extract of 3T3L1 adipocytes; label: 32P
[2] = target: KLF9 (Mus musculus) (UniProt O35739); assay: EMSA; settings: anti-KLF9 supershift or reduction of complex I; competed by excess BTE, not by NF-kB consensus; complex absent in KLF9 knockout WAT; 2.5 mM MgCl2, 50 mM KCl, pH 7.6; protein in an extract; label: 32P
[3] = target: NF-kB p65 (Mus musculus) (UniProt Q04207); assay: EMSA; settings: p65 not detected in complex by anti-p65 antibody; protein in an extract; protein details: native, nuclear extract of 3T3L1 adipocytes; label: 32P
[4] = target: KLF9 (Mus musculus) (UniProt O35739); assay: activity in cells; settings: KLF9 overexpression increased 32bp-tk-luc reporter in day 19 3T3L1 adipocytes; protein in cells; only the site is given
[5] = target: NF-kB p65 (UniProt Q04207); assay: one hybrid; settings: four independent cDNA isolates; 15 mM 3-aminotriazole; protein in cells
[6] = target: KLF9 (UniProt O35739); assay: one hybrid; settings: two independent cDNA isolates; 15 mM 3-aminotriazole; protein in cells
[7] = target: KLF3 (UniProt Q60980); assay: one hybrid; settings: ten independent cDNA isolates; 15 mM 3-aminotriazole; protein in cells

Amino acid sequences for entries named in this document (tags omitted). A change or cut given only in a name is not applied to a line headed by its entry. Chains listed by the source or under a name are the forms on record and can include a tag or linker.
UniProt Q60980: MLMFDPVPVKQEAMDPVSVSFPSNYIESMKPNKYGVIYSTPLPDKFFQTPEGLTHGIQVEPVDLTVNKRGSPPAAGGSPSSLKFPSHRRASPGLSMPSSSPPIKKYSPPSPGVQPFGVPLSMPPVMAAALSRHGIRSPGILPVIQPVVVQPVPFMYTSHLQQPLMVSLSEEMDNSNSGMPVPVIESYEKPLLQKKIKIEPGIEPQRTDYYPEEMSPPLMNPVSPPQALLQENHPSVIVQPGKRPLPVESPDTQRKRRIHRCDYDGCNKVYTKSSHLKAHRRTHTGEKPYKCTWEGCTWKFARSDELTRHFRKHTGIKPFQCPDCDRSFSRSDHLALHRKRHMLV
UniProt O35739, other isoform, or with tags, fused parts or gaps: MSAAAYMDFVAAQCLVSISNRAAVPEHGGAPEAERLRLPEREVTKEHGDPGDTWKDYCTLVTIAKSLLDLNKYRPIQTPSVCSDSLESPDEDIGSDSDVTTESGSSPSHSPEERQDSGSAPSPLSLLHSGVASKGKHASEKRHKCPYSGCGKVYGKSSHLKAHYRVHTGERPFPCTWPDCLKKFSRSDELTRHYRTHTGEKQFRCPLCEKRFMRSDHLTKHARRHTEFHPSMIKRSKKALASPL
UniProt Q04207, whole entry: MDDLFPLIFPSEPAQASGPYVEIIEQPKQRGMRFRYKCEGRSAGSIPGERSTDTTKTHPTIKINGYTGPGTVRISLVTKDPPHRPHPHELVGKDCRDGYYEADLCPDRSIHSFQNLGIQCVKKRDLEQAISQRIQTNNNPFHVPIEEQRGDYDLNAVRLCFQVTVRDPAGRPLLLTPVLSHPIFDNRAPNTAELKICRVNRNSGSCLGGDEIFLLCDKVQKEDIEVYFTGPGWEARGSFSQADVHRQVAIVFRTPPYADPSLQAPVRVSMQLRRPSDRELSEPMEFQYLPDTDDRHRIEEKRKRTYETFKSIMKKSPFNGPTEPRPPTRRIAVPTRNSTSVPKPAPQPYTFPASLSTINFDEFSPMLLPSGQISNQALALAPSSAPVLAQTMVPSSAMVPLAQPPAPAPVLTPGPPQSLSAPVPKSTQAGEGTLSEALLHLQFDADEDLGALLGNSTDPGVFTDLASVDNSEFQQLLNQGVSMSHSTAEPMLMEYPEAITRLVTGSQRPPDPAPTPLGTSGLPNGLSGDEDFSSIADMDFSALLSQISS

Sequence	binding result [1]	binding result [2]	binding result [3]	activity on this sequence [4]	binding result [5]	binding result [6]	binding result [7]
GAAGCCCAAGCTGGGTTGTACCAGGTTCCCTA (double strand) [adiponectin promoter -188/-157 32-bp element]	no binding	binds	no binding	active			
GAAGCCCAAGCTGGGTTGTACCAGGTTCCCTAGAAGCCCAAGCTGGGTTGTACCAGGTTCCCTAGAAGCCCAAGCTGGGTTGTACCAGGTTCCCTA (double strand) [(32 bp)x3 trimer of -188/-157 element]					binds	binds	binds
